The source of these data is paper PMC5134568.

Chains of the proteins cited; added tags and fusions are not shown. Residues count along the entry.
UniProt Q02496, 21-630: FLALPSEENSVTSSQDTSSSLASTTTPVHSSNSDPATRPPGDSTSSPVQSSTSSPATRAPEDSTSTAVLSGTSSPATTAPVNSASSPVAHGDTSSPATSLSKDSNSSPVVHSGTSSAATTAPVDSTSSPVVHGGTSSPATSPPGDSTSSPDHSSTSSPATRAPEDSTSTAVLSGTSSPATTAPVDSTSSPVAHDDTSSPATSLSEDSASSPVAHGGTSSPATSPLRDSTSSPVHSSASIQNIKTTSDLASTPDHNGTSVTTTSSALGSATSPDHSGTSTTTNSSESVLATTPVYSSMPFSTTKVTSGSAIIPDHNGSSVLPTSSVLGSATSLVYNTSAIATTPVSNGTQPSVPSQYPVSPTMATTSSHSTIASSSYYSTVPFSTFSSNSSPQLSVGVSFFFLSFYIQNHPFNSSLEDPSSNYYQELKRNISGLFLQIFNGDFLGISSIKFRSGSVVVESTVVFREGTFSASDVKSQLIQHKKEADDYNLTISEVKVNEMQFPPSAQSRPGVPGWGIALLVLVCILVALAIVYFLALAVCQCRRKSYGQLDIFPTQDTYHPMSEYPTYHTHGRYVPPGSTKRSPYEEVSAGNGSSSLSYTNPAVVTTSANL
UniProt Q99JW5, 24-315: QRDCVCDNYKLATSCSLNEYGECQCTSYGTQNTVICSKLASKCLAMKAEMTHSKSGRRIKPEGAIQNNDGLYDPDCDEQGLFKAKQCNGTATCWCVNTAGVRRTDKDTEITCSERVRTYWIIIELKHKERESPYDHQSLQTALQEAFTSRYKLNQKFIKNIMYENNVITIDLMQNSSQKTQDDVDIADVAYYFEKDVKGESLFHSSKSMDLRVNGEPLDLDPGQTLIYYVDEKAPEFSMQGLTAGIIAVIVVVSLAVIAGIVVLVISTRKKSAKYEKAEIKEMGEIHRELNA
UniProt P16422, 24-314: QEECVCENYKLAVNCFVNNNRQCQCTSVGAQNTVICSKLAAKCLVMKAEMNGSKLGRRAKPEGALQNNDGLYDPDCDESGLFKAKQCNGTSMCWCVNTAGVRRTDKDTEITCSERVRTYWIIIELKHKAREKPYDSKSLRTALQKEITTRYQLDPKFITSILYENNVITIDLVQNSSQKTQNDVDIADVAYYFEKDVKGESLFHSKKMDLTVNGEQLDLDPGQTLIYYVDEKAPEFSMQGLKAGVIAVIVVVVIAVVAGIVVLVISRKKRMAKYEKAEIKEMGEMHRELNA

Series [1] has as its target muc1 (mucin1, on caerulein-treated Panc02 cells) (mouse (Panc02 murine pancreatic cancer cells)) (UniProt Q02496). The series is described as follows: fluorescence signal-on of beacon on cells. Particulars: no signal on untreated Panc02, 5' amine, 3' BHQ, live cells, 5 min at room temperature, probe annealed at 94 and 72 °C, binding buffer and salt not given (0.1 M TE pH 7.0 only for QD conjugation), protein on the cell surface, label: 5' QD525 (cy5.5 in NIF version), 3' BHQ quencher, folded or branched DNA.

Series [2] concerns the target EpCAM (on caerulein-treated Panc02 cells) (mouse (Panc02 murine pancreatic cancer cells)) (UniProt Q99JW5). The series is described as follows: fluorescence signal-on of beacon on cells. Particulars: 3' BHQ2, live cells, 5 min at room temperature, probe annealed at 94 and 72 °C, binding buffer and salt not given (0.1 M TE pH 7.0 only for QD conjugation), protein on the cell surface, label: 5' QD565 (cy5.5 in NIF version), 3' BHQ2 quencher, folded or branched DNA.

Series [3] concerns the target EpCAM (human, on MDA-MB-231 and Kato III cells) (human) (UniProt P16422). The series is described as follows: flow cytometry and confocal fluorescence on cells. Particulars: HEK-293T (EpCAM-negative) 0% positive, 5' amine, 3' BHQ2, live cells, 5 min at room temperature, probe annealed at 94 and 72 °C, binding buffer and salt not given (0.1 M TE pH 7.0 only for QD conjugation), protein on the cell surface, label: 5' QD565 (cy5.5 in NIF version), 3' BHQ2 quencher, folded or branched DNA. For orientation: A flow cytometer gives signals particle by particle.

The exact form of at least one protein or probe is not confirmed. Where cells or extracts were used, other partners may take part. For some assays here: No signal at the amounts used counts as a negative.

For “AACCGCCCAAATCCCTAAGCTTTGGATACCCTGGCACAGACACACTACACACGCACA [muc1 ALB]”, in series [1], the binding result is “binds”.

With “GGGACACAATGGACGTCCGTAGTTCTGCGGCCGACATGAGAG [EpCAM mutant ALB]”, the binding result in series [2] (1 pmol mutant ALB, signal disappeared, 5' amine) was “no binding”.

Turning to “GGGACACAATGGACGTCCGTAGTTCTGGCTGACTGGTTACCCCTCTAACGGCCGACATGAGAG [EpCAM ALB]”, the binding result in series [3] (Kato III cells) is recorded as “binds”; in series [3] (MDA-MB-231 cells) it was “binds”; in series [2] (no signal on untreated Panc02, 5' amine), “binds”.
